The list shows a part of the results. Potency and affinity values are given separately. Where no call is shown, the source marks the result inconclusive.

The source of these data is PubChem BioAssay AID2442 (Broad Institute, 2010).

The assay is described as follows: PubChem AID 2442. The note with it: H4 cells, SNCA 5'UTR luciferase translation, luminescence; at 6 µM (top of the series).

Turning to `CCc1ccc(CNC(=O)Cc2ccc(NC(=O)C3=C(C)OCCS3)cc2)cc1`, the activation was -15.5%.

Consider `CCOC(=O)c1[nH]c(C)c(C(=O)N2CCc3ccccc32)c1C`, for which the activation is -35.1%.
